Experimental data published in paper PMC11039996.

Amino acid sequences for entries named in this document (tags omitted).
UniProt Q96DE0: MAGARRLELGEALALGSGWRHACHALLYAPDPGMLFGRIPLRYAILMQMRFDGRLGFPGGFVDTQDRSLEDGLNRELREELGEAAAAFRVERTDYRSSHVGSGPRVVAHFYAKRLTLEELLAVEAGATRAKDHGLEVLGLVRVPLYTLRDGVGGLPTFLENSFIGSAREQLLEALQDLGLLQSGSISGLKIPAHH
UniProt P09874: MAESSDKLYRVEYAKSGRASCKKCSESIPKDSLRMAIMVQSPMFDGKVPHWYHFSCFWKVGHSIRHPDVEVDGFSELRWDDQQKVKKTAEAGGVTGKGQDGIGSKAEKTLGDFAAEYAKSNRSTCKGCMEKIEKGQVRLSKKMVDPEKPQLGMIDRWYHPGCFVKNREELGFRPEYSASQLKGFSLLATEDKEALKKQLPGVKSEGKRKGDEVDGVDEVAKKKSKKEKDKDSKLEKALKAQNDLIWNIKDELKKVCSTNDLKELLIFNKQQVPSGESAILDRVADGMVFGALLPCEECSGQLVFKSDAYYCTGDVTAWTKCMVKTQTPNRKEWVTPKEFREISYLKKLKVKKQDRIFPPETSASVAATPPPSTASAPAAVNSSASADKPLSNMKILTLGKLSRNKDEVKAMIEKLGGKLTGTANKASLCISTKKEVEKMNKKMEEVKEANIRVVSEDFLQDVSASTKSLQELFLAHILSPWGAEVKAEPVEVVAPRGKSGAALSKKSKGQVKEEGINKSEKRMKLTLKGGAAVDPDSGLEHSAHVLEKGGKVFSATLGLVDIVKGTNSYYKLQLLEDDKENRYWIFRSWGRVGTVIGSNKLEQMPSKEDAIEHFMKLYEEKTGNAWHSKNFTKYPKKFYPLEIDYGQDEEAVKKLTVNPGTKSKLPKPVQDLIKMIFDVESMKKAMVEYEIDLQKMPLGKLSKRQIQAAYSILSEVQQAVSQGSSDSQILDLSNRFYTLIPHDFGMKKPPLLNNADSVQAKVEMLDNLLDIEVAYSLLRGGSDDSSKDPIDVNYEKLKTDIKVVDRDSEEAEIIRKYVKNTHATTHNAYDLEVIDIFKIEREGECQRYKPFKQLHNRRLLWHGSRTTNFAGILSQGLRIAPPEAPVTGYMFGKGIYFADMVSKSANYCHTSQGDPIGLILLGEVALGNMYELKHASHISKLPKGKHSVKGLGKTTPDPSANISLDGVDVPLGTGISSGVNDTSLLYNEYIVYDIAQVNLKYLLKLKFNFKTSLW

Target: SFB-tagged NUDT16, wild type (UniProt Q96DE0)
Assay: affinity purification with mass spectrometry; tandem affinity purification (streptavidin beads, biotin elution, S protein beads) of SFB-NUDT16 from cytoplasmic and chromatin fractions of stably expressing 293T cells; NTEN buffer

PARP1, endogenous (from UniProt P09874 1-1014)
binding: binds

No constants are given. Whether binding was seen depends on the method and setting. In cells and extracts the contact can be indirect. A yes stands for co-enrichment or nearness to the bait. Other partners may have been found.
